# Measured values reported in PubChem BioAssay AID493014 (National Center for Advancing Translational Sciences (NCATS), 2011).
# The list shows a part of the results. These are further read-outs of the screen, such as a control signal, another cell line or another target. No call is given for them. Compounds called inactive in the main read-out are mostly missing here. The note in brackets gives the kind of curve behind each potency; many fits are weak.
# Assay: qHTS Assay to Find Inhibitors of Chronic Active B-Cell Receptor Signaling
# Conditions: ABC-DLBCL IkBa-CBG/CBR reporter, luminescence ratio (green luciferase fused to IkBa over red control in TMD8 lymphoma cells), 4 h
# In short: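 TMD8 human ABC-DLBCL cells with doxycycline-inducible IκBα–green luciferase fusion and unfused red luciferase, in 0.5% FBS medium; compounds up to 46 uM, 4 h at 37C. Green/red luminescence ratio, filter-overlap corrected, fitted to concentration-response curves.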
# [1] = measured here: CBR red luminescence, cell number
# [2] = measured here: IkBa-CBG green luminescence
Structure (SMILES),AC50 [1],AC50 [2]
COc1ccccc1NC(=O)C(=O)Nc1ccc2c(c1)N(C(=O)C1CC1)CCC2,"1.3 µM [falling, partial curve, poor fit]",
COc1ccc(N2C(=O)N3[C@H](c4cccc(C)c4)[C@@H]4C(=O)N(Cc5ccccc5)C(=O)[C@@H]4[C@]3(Cc3ccccc3)C2=O)cc1,"2 µM [falling, full curve, poor fit]","3.16 µM [rising, full curve, poor fit]"
Cc1cc(C)c(S(=O)(=O)Nc2cc(C)on2)c(C)c1,"0.562 µM [rising, full curve]",
NC(=O)/C(N=Nc1ccccc1)=N/Nc1ccccc1,"32.6 µM [falling, single point]",
COc1ccc(-c2csc(N3C(=N)SCC3=O)n2)cc1,"0.708 µM [rising, full curve, poor fit]",
COC(=O)c1sccc1-c1ccc(/C=N/OC(=O)c2ccccc2)o1,"15.8 µM [falling, partial curve, poor fit]",
Cc1cc(C)c2cc(CN(Cc3ccco3)C(=S)NCC3CCCO3)c(=O)[nH]c2c1 (stereo unspecified),"14.1 µM [falling, single point]","14.1 µM [rising, partial curve, poor fit]"
COc1cccc(OCC(O)CN2CCN(CCN3C(=O)c4cccc5cccc(c45)C3=O)CC2)c1 (stereo unspecified),"17.8 µM [falling, single point]",
COc1ccccc1Nc1nc(N)nc(-c2oc3ccccc3c2C)n1,"0.82 µM [falling, full curve, poor fit]",
O=C(Nc1ccc(N2CCOCC2)cc1)c1cc(F)c(F)cc1Cl,"32.6 µM [rising, partial curve, poor fit]",
O=C(NC1C=CS(=O)(=O)C1)c1sc2ccccc2c1Cl (stereo unspecified),"7.08 µM [falling, partial curve]",
O=[N+]([O-])c1c(Nc2cccc(O)c2)cc(Cl)c2nonc12,"35.5 µM [falling, single point]",
COc1ccccc1Oc1ccc(N/C=C/C(=O)c2ccco2)cc1,"35.5 µM [falling, single point]",
COCCn1c(SCC(=O)N2CCC(C)CC2)nc2c([nH]c3ccccc32)c1=O,"1.41 µM [falling, partial curve, poor fit]",
CCN(CC)C(=O)C(=O)Nc1cc(C(F)(F)F)ccc1Cl,"2.91 µM [rising, single point]",
CCCN(C(=O)c1ccccc1N)c1c(C)n(C)n(-c2ccccc2)c1=O,"11.2 µM [rising, partial curve, poor fit]",
CN(C)c1ccc(NC(=O)c2ccc([N+](=O)[O-])cc2Cl)cc1,"1.46 µM [rising, full curve]",
CC(=O)c1ccc(-c2csc(N3CCC(C(N)=O)CC3)n2)cc1,"7.31 µM [rising, partial curve]",
O=c1cc(-c2ccc([N+](=O)[O-])cc2)nc2cc(-c3ccc(Cl)cc3)[nH]n12,"0.461 µM [falling, full curve]",
COc1ccc(NC(=O)c2ccco2)cc1NC(=O)c1cc(Br)ccc1Cl,"2.24 µM [rising, partial curve]",
O=C(O)c1ccccc1CSc1nc2ccccc2s1,"35.5 µM [falling, single point]",

# Fetched one by one from the list above (three):
Structure (SMILES),AC50 [1],AC50 [2]
O=C(Nc1ccc(N2CCOCC2)cc1)c1cc(F)c(F)cc1Cl,"32.6 µM [rising, partial curve, poor fit]",
COC(=O)c1sccc1-c1ccc(/C=N/OC(=O)c2ccccc2)o1,"15.8 µM [falling, partial curve, poor fit]",
CC(=O)c1ccc(-c2csc(N3CCC(C(N)=O)CC3)n2)cc1,"7.31 µM [rising, partial curve]",

# Rewritten tab-delimited: entries from further up.
Structure (SMILES)	AC50 [1]	AC50 [2]
COc1ccc(-c2csc(N3C(=N)SCC3=O)n2)cc1	0.708 µM [rising, full curve, poor fit]	
CCN(CC)C(=O)C(=O)Nc1cc(C(F)(F)F)ccc1Cl	2.91 µM [rising, single point]	

# Next part:

Structure (SMILES),AC50 [1],AC50 [2]
FC(F)(F)c1cc(NC2CCCCC2)ccn1,"10 µM [falling, partial curve, poor fit]",
CCCOc1ccc(CC(=O)N/N=C\c2ccc(F)cc2)cc1,"35.5 µM [rising, single point]",
COc1ccc(Nc2nc(N)c3ccccc3n2)c(OC)c1,"8.91 µM [falling, partial curve]",
Cc1cccc2cc3c(N)c(C(=O)N4CCc5ccccc54)sc3nc12,"2.06 µM [falling, full curve]",
O=C(Nc1ccc2nc(-c3cccnc3)[nH]c2c1)C12CC3CC(CC(C3)C1)C2,"32.6 µM [falling, partial curve, poor fit]",
COc1ccc(S(=O)(=O)N2CCCC2CNC(=O)C(=O)Nc2ccc(F)cc2)cc1 (stereo unspecified),"8.2 µM [falling, partial curve]",
Fc1ccc(-c2cn3cc(C(F)(F)F)cc(Cl)c3n2)cc1,"0.794 µM [rising, full curve, poor fit]",
Nc1nc(Nc2ccc(Cl)cc2)nc2ccccc12,"16.4 µM [falling, partial curve, poor fit]",
COCC(C)n1c(C)cc(C(=O)CN2c3cccc4cccc(c34)S2(=O)=O)c1C (stereo unspecified),"20.6 µM [rising, single point]",
CCCn1c(=O)c(C(=O)Nc2cnccn2)c(O)c2ccccc21,"32.6 µM [rising, single point]",
COc1ccc(S(=O)(=O)N(CC(=O)Nc2ccc(C)cc2)c2ccc(C)cc2)cc1OC,"4.47 µM [falling, single point]","4.47 µM [rising, partial curve, poor fit]"
O=[N+]([O-])c1ccc(Nc2ccc(F)cc2)cc1,"0.1 µM [rising, full curve, poor fit]",
Nc1nc(SCc2ccccc2)[nH]c(=O)c1-c1ccccc1,"29.1 µM [falling, single point]",
COC(c1ccccc1)c1nnc(CCC(=O)N(C)C(C2CC2)C2CC2)o1 (stereo unspecified),"8.91 µM [rising, partial curve]",
CC1=NN(C(=O)c2ccccc2C)C(O)(c2ccc(Cl)cc2)C1 (stereo unspecified),"15.8 µM [falling, partial curve, poor fit]",
O=C(O)CCc1ccc(-c2ccccc2)n1-c1cccc(C(=O)O)c1,"35.5 µM [falling, single point]",
COCCNC(=O)c1ccccc1NC(=O)C1COc2ccccc2O1 (stereo unspecified),"3.55 µM [rising, full curve, poor fit]",
COc1ccc([C@@H]2[C@@H]3C(=O)N(C(C)(C)C)C(=O)[C@@H]3[C@]3(Cc4ccc(Cl)cc4)C(=O)N(c4ccc(Br)cc4)C(=O)N23)cc1,"4.47 µM [falling, full curve, poor fit]",
CCCCC(=O)Nc1cc(NC(=O)CC)ccc1Cl,"32.6 µM [rising, partial curve, poor fit]",
Cc1ccccc1NC(=O)C1CCCN(C(=O)Nc2ccc(F)cc2)C1 (stereo unspecified),"5.62 µM [rising, partial curve, poor fit]",
C/C(=N/NC(=O)c1cnccn1)c1ccncc1,"20 µM [falling, single point]",

Structure (SMILES),AC50 [1],AC50 [2]
CC(=O)NS(=O)(=O)c1ccc(NS(=O)(=O)c2ccccc2[N+](=O)[O-])cc1,"35.5 µM [rising, single point]",
Cc1ccc(NC(=O)C(=O)NCC2CCCN2S(=O)(=O)c2cccs2)cc1C (stereo unspecified),,"20.6 µM [falling, partial curve, poor fit]"
CCC(C)NC(=S)Nc1ccc(F)cc1 (stereo unspecified),"0.891 µM [rising, full curve, poor fit]",
C/C(=N\Nc1nc(-c2ccccn2)nc2ccccc12)c1ccc(F)cc1,"35.5 µM [rising, single point]",
CC(=O)NC(Cc1ccccc1F)C(=O)NC1CCN(C(=O)Nc2ccc(C)cc2)CC1 (stereo unspecified),"20 µM [rising, partial curve, poor fit]",
COc1ccc(CC(=O)NCC2CCCN(Cc3ccc(F)c(OC)c3)C2)cc1 (stereo unspecified),"8.91 µM [rising, partial curve, poor fit]",
COc1cccc(CN2CCNC(=O)C2CC(=O)N(C)C2CCOCC2)c1OC (stereo unspecified),"5.62 µM [rising, single point]",
CCN(CC)S(=O)(=O)c1ccc(C)c(NC(=O)COC(=O)CCC(=O)c2cccs2)c1,"16.4 µM [rising, partial curve, poor fit]",
Cc1nn(C(C)C(=O)N2CCc3ccccc3C2)c(=O)c2cc3occc3n12 (stereo unspecified),"35.5 µM [falling, single point]",
Cc1cccc(CSc2nc3nc(C)cc(C)n3n2)c1,"15.8 µM [rising, single point]",
COc1ccc(N2C(=O)CS(=O)C(c3ccccc3)C2=O)cc1 (stereo unspecified),"12.6 µM [falling, partial curve]","15.8 µM [falling, partial curve, poor fit]"
CCOC(=O)c1c(C)oc(NC(=O)CCl)c1C(=O)OCC,"10 µM [falling, partial curve]",
CCOC(=O)CC1ON(C)C(=O)N1c1ccc([N+](=O)[O-])cc1 (stereo unspecified),"1.3 µM [rising, full curve]",
COc1ccc(S(=O)(=O)Nc2nc3ccccc3nc2Nc2ccc3c(c2)OCO3)cc1,"0.731 µM [falling, full curve, poor fit]",
N#Cc1nc(-c2ccccc2F)oc1N1CCN(C(=O)c2ccco2)CC1,"12.6 µM [falling, partial curve, poor fit]",
Cc1nc2ccc3[nH]snc3c2n1,"2.31 µM [falling, single point]",
CC(C)NS(=O)(=O)c1ccc(NC(=S)NC(=O)c2cccc([N+](=O)[O-])c2)cc1,"16.4 µM [falling, partial curve, poor fit]",
Cc1ccc(O)c(CNc2nc3ccccc3n2C)c1,"28.2 µM [rising, partial curve, poor fit]",
Cc1cccc(Oc2cc(NC(=O)Cn3cnc([N+](=O)[O-])n3)cc([N+](=O)[O-])c2)c1,"20.6 µM [falling, single point]",
Cn1nccc1C(=O)Oc1ccc(/C=N/NC(=O)c2ccccc2O)cc1,"1.12 µM [falling, full curve]",
